The target of assay [1] is RyR2 (ryanodine receptor 2), rat (rat) (UniProt B0LPN4). In words: co-immunoprecipitation of RyR2 and immunoblot for calstabin, adult rat ventricular myocytes infected with AdshMRP4 vs AdshLuc.
Assay [2] has the same target. Description: co-immunoprecipitation of RyR2 and immunoblot for calstabin, shMRP4 treated cardiac myocytes.

Protein sequences, listed by entry. Tags and fused reporters are not part of them.
UniProt B0LPN4: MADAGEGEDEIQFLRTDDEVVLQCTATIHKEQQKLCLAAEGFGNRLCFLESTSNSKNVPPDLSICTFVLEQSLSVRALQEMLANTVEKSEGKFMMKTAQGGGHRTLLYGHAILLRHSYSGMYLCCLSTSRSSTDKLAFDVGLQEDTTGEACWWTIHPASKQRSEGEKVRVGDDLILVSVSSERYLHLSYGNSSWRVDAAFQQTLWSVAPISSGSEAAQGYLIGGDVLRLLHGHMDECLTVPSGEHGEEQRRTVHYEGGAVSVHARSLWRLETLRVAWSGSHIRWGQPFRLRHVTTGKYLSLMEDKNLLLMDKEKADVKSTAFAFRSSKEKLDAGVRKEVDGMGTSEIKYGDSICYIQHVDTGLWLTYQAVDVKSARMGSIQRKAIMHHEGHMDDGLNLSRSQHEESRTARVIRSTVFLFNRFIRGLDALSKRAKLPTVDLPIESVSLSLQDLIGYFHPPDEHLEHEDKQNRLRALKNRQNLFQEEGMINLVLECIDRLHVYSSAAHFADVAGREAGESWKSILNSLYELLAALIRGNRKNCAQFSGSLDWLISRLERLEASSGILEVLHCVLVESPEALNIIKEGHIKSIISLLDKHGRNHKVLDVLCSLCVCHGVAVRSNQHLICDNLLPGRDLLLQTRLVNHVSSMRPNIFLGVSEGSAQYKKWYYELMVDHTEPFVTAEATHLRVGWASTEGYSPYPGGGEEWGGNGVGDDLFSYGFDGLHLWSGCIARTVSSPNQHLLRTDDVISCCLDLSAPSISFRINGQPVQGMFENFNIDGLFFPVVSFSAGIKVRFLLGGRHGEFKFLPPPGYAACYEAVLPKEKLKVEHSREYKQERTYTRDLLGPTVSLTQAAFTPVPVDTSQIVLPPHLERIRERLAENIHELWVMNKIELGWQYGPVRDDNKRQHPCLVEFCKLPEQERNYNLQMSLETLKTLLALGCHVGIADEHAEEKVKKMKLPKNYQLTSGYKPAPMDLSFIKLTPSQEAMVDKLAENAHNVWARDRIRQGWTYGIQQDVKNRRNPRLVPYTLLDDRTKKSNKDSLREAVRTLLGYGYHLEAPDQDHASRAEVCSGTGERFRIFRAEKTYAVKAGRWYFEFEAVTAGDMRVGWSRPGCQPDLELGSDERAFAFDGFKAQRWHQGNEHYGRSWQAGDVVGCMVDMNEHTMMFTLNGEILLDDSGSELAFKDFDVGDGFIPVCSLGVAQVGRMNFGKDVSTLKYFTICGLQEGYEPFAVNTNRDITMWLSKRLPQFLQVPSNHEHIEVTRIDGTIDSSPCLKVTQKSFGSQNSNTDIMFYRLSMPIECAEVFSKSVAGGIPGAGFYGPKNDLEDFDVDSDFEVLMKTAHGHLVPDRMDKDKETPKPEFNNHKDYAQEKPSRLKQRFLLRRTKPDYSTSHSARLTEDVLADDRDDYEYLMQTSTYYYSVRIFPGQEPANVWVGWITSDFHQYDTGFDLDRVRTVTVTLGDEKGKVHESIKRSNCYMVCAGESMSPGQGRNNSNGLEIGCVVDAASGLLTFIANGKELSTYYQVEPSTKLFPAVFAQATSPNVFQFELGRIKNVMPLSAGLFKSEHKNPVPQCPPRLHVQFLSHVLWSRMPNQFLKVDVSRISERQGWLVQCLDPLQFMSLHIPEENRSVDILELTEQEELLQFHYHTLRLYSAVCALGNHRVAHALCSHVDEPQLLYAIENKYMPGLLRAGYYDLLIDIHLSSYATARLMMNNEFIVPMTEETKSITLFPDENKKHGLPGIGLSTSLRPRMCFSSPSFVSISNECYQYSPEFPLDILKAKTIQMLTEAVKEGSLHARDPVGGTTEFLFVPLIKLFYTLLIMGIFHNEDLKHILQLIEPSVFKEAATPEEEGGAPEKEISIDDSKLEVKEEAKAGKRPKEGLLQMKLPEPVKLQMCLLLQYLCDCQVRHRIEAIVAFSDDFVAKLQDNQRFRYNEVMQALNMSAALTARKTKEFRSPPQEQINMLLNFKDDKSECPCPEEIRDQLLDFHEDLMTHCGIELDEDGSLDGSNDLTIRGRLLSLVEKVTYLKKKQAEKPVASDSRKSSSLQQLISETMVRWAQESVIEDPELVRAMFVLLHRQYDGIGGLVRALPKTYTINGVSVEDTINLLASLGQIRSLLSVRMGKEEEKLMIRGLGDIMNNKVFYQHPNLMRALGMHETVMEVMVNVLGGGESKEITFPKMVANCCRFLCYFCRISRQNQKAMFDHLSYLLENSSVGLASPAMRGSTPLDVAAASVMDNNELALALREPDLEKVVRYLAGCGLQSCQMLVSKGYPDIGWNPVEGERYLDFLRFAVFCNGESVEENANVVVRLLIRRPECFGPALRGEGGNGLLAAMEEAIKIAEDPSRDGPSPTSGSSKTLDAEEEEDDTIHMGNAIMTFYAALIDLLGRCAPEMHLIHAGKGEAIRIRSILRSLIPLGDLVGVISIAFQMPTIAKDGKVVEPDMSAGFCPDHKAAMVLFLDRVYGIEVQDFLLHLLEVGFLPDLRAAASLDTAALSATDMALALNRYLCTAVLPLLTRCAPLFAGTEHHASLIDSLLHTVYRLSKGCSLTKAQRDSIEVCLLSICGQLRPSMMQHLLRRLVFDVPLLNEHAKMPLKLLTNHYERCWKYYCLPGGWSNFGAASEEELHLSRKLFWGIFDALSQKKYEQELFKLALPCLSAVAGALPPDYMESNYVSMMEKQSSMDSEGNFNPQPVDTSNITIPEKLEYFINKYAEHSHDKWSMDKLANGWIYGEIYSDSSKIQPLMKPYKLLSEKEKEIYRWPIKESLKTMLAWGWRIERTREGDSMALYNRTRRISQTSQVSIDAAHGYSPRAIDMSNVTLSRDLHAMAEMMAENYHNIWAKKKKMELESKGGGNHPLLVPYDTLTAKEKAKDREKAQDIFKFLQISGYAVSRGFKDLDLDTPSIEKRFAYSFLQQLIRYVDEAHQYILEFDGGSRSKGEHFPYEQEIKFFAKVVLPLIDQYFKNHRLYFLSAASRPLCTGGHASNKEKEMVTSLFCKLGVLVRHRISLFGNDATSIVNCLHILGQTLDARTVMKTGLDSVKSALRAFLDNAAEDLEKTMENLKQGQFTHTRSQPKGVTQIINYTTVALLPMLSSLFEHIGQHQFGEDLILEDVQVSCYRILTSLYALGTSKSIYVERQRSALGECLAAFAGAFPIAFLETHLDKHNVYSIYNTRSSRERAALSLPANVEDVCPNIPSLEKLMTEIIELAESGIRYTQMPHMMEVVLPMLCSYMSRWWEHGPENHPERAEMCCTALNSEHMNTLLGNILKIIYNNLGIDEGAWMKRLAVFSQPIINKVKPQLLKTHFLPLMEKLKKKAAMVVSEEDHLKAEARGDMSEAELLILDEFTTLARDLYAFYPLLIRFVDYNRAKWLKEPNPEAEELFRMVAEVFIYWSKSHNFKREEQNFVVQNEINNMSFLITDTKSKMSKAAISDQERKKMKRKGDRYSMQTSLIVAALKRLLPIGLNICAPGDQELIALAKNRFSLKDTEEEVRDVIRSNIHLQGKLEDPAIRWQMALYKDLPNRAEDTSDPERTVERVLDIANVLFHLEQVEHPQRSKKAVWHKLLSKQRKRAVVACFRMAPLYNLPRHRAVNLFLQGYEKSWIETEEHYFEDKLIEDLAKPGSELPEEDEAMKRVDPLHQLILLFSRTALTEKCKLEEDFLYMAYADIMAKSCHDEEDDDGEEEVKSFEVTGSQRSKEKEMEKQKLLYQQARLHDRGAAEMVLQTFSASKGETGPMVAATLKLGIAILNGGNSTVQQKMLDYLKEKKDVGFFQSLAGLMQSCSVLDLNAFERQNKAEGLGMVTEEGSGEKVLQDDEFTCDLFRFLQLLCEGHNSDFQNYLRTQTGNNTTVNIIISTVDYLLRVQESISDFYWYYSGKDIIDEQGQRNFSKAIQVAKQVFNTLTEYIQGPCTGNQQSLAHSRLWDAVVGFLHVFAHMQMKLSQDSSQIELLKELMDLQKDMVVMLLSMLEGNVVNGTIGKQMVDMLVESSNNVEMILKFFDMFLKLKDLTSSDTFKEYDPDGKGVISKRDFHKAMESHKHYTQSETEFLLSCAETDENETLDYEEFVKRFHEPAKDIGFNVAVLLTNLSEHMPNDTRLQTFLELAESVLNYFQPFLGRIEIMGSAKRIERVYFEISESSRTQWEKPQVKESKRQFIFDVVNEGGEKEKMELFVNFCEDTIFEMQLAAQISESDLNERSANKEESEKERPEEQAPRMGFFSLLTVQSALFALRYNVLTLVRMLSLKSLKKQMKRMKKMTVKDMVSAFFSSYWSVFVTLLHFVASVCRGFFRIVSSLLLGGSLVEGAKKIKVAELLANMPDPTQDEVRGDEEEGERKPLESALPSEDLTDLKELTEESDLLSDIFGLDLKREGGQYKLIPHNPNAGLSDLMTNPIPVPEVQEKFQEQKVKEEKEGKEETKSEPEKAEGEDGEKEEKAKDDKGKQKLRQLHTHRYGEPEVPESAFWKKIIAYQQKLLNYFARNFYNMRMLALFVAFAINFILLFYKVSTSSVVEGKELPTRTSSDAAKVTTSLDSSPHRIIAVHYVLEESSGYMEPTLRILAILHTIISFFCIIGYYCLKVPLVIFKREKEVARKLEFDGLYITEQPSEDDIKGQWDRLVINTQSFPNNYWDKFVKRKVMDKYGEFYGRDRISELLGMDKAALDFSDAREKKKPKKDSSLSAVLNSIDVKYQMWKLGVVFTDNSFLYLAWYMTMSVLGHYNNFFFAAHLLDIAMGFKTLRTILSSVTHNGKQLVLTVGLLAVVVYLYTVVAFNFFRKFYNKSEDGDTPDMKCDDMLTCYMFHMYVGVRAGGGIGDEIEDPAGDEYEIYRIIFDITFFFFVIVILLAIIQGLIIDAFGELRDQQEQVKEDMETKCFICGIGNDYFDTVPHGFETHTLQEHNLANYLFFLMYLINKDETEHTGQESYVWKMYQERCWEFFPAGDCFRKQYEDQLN
UniProt P97534: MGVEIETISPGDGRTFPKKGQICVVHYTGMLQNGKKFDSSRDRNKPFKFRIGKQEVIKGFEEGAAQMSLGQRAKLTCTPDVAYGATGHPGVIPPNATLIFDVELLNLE

No constants are given. Whether binding was seen depends on the method and setting. Binding seen in cells or lysates may run through a third protein. Some entries that bind do so weakly or less than the wild type.

As to “calstabin2 (FKBP12.6), rat (from UniProt P97534 1-108)”, the binding entry in assay [1] and in assay [2] was “binds” in each case.

For the origin of these results see US20110218232A1.
